From article PMC11137995
Results are given in words; binding and its absence hold for the method and conditions named. In cells and extracts the contact can be indirect. Some results given as binding are weak or reduced against the parent protein; the word gives no strength. Values belong to the substance of their own block, whether it stands above or below them.

The chains behind the UniProt entries cited, without tags or fusion partners. Where a name states a change or a piece, a line headed by the entry shows the natural chain unless it says otherwise.
UniProt P45973: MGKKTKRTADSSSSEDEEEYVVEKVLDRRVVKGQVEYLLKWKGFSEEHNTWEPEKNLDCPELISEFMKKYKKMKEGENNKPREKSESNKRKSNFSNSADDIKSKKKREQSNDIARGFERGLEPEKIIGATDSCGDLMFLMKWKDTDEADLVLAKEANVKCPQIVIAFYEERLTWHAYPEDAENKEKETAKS
UniProt P42224: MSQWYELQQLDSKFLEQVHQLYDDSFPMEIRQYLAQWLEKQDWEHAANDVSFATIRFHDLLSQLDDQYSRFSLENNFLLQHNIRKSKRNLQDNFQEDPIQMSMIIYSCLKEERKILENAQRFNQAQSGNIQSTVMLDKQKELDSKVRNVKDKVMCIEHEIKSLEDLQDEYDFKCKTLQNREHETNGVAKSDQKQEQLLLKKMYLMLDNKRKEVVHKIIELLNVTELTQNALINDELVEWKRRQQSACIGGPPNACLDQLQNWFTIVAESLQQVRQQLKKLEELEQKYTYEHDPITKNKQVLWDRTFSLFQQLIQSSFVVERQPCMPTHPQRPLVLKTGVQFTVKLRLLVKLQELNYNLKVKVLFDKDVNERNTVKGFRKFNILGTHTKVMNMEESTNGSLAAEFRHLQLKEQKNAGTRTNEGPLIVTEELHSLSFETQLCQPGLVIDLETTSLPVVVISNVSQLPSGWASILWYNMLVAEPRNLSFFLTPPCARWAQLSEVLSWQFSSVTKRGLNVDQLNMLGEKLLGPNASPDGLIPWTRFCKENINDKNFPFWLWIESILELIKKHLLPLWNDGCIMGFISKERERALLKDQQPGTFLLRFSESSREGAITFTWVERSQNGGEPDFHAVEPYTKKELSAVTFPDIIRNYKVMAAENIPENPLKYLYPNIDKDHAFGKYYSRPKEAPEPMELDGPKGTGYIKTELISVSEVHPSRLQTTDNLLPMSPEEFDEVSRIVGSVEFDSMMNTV
UniProt Q13547: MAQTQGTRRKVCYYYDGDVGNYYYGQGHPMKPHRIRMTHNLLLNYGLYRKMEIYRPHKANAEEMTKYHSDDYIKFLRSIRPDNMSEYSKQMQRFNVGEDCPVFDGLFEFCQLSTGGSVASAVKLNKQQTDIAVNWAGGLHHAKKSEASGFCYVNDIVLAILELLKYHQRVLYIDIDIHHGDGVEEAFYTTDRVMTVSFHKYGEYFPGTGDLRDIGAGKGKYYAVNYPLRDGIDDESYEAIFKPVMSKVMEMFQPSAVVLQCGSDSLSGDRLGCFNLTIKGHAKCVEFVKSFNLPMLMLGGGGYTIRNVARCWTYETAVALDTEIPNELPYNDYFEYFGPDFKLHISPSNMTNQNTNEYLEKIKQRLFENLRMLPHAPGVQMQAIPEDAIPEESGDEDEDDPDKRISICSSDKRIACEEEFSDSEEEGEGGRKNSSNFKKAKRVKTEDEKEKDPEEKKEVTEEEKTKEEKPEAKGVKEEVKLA

How the values were obtained:
[1] = biological target: HP1α as used in Figures S3C, 5F and S3F (human) (UniProt P45973); experiment: co-IP; HP1α with STAT1 (Figure S3C); the text tells neither the cells nor whether exogenous or endogenous; co-IP is the only such method in the methods
[2] = biological target: full-length CBX5 (HA tagged, NM_001127322.1), encoding Heterochromatin Protein 1α (human) (UniProt P45973); experiment: co-IP; exogenous co-IP: HEK293T cells transfected with expression vectors carrying full-length or truncated coding sequences; IP buffer 20 mM Tris-HCl pH 7.4, 150 mM NaCl, 1 mM EDTA, 1% NP-40; primary antibodies and protein A + G agarose beads; western blot
[3] = biological target: HP1α, endogenous in ICCA cells (human (endogenous in human ICCA cell lines)) (UniProt P45973); experiment: co-IP; endogenous co-IP: wild-type ICCA cells without any specific treatment; IP buffer 20 mM Tris-HCl pH 7.4, 150 mM NaCl, 1 mM EDTA, 1% NP-40; primary antibodies and protein A + G agarose beads; western blot

binding [1]: no binding
Substance: Signal Transducer and Activator of Transcription 1 (from UniProt P42224 1-750)

binding [2]: binds
Substance: full-length HDAC1 (Flag tagged, NM_004964.3) (from UniProt Q13547 1-482) (enzyme)

binding [3]: binds
Substance: HDAC1, endogenous in ICCA cells (from UniProt Q13547 1-482) (enzyme)
